Measurements from article PMC10889306, “ApoE Isoforms Inhibit Amyloid Aggregation of Proinflammatory Protein S100A9” (International Journal of Molecular Sciences, 2024).
No constants are given. Whether binding was seen depends on the method and setting. Some results given as binding are weak or reduced against the parent protein; the word gives no strength.

Protein sequences, listed by entry. Tags and fused reporters are not part of them. Lines headed by an entry give the natural chain unless they say otherwise; changes in a name come on top. Chains listed by the source or under a name are the forms on record and can include a tag or linker. Residues count along the entry.
ApoE3-DOPC (lipidated ApoE3) (P02649, residues 19-317): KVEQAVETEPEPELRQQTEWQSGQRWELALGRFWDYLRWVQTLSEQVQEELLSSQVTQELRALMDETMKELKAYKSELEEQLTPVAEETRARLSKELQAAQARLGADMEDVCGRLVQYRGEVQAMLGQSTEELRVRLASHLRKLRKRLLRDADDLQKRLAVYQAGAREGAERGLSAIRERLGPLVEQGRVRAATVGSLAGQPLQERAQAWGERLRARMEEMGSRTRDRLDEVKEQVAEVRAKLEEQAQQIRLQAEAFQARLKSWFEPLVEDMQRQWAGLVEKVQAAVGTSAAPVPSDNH
ApoE4 (lipid-free) (P02649, form named): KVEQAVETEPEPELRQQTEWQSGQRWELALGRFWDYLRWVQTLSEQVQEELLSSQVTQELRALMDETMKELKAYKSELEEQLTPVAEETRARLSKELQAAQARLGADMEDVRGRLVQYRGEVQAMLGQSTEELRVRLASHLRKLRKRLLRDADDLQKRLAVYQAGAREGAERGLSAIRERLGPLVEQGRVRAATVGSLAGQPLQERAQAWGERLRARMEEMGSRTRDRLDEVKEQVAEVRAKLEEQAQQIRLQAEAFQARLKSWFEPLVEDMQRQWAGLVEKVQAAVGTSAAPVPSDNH

Key:
[1] = molecular target: T1, ApoE3-DOPC (lipidated ApoE3) (human, UniProt P02649 19-317); assay: cross-linking; native proteins, 4 uM S100A9 and 4 uM ApoE isoform (1:1), preincubated at 4 C overnight; glutaraldehyde at 10- and 100-fold molar excess, 30 min at 4 C, quenched with Tris; SDS-PAGE and Western blot with anti-S100A9 polyclonal antibodies; both purified
T1 construct: Apolipoprotein E, isoform ApoE3 (Cys112/Arg158), human; printed as a 299-residue lipoprotein; 'Lipidated full-length ApoE isoforms'; also called DOPC-ApoE3; source: bought: AlexoTech AB (recombinant)

[2] = molecular target: T2, ApoE4-DOPC (lipidated ApoE4) (human, UniProt P02649 19-317, Cys112 to Arg112); assay: as above
T2 construct: Apolipoprotein E, isoform ApoE4 (Arg112/Arg158), human; printed as a 299-residue lipoprotein; 'Lipidated full-length ApoE isoforms'; source: bought: AlexoTech AB (recombinant)

ApoE4 (lipid-free) = molecular target: T3, ApoE4 (lipid-free) (human, UniProt P02649 19-317, Cys112 to Arg112); assay: SDS-stable complex by Western blot of pellet and SEC fractions; 100 uM S100A9 with 5 uM lipid-free ApoE4, PBS, 42 C, 70 h (methods: 72 h); centrifuged 14,000 rpm 15 min; pellet and Superdex 200 peaks of the supernatant on SDS-PAGE and Western blot with anti-S100A9 polyclonal antibodies (Santa Cruz); both purified
T3 construct: Apolipoprotein E, isoform ApoE4 (Arg112/Arg158), human; printed as a 299-residue lipoprotein; the methods call the ApoE isoforms full-length; Natural allele APOE e4; differs from ApoE3 only at position 112; also called Apolipoprotein E4; lipid-free ApoE4; source: bought: AlexoTech AB (recombinant), then size-exclusion chromatography (Superdex 200)

binding [1]: binds weakly | binding [2]: binds weakly | binding (ApoE4 (lipid-free)): binds
B1: S100A9 (natural protein)
chain: KMSQLERNIETIINTFHQYSVKLGHPDTLNQGEFKELVRKDLQNFLKKENKNEKVIEHIMEDLDTNADKQLSFEEFIMLMARLTWASHEKMHEGDEGPGHHHKPGLGEGTP
notes: 13 kDa monomer on the gels; PDB 5I8N (S100A9 dimer, NMR) was used for the modelling only; also called native S100A9; S100A9 amyloids; source: Escherichia coli, purified as described previously [57]; Superdex 200 gel filtration for the cross-linking
